# From paper PMC11317151
# Sequences of proteins named here, by UniProt entry; tags and fusion partners are left off. Residues count along the entry.
# UniProt Q99708, whole entry R100W: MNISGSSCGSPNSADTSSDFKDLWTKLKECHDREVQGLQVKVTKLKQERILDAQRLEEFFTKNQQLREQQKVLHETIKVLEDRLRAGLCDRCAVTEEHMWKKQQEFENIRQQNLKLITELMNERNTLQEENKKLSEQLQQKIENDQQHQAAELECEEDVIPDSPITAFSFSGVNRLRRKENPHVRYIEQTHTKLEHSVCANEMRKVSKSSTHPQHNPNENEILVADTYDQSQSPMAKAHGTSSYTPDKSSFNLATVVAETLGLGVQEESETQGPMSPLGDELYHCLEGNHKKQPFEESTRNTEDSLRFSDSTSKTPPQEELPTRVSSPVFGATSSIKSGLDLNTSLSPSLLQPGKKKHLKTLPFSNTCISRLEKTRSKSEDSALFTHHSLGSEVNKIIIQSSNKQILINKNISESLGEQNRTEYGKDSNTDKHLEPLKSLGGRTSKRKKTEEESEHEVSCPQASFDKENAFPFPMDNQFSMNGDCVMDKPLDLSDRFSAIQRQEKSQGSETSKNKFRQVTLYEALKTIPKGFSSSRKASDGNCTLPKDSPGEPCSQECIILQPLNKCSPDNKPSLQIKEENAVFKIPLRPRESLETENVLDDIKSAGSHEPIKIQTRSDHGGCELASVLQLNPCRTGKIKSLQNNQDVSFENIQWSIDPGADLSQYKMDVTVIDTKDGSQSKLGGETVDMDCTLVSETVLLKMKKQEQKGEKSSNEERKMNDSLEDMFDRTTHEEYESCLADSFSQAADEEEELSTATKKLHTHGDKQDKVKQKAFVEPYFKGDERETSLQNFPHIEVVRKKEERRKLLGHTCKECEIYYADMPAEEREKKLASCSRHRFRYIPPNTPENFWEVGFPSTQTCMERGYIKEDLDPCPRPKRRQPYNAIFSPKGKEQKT
# UniProt Q99708, 1-782, stated change not applied: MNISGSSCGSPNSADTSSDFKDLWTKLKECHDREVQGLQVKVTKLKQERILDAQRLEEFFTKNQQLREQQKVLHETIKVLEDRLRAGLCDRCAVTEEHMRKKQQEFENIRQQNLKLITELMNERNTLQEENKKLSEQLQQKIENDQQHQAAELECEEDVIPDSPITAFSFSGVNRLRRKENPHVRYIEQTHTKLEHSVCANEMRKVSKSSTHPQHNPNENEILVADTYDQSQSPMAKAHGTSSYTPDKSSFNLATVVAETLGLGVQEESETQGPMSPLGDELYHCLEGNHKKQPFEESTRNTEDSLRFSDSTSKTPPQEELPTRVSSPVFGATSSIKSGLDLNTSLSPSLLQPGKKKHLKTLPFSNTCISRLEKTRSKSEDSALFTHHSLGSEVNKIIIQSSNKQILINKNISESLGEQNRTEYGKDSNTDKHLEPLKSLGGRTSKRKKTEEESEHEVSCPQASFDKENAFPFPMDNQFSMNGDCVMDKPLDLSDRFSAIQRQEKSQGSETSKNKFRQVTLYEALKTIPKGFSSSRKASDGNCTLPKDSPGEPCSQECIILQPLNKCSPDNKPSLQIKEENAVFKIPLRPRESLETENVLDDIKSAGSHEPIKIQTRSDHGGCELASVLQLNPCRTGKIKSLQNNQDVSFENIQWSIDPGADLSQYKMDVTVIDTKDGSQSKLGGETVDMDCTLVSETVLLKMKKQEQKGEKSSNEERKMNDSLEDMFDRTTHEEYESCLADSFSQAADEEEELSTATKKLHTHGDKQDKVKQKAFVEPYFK
# UniProt Q99708, 542-897, stated change not applied: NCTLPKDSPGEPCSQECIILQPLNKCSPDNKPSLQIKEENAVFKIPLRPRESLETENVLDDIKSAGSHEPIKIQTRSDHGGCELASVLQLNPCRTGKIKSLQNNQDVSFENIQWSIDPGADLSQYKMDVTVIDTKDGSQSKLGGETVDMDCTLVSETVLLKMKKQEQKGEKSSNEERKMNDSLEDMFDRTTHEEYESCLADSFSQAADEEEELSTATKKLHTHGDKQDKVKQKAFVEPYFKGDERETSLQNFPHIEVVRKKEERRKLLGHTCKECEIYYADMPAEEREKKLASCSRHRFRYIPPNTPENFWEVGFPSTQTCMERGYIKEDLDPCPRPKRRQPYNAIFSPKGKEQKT
# UniProt Q99708, 791-897, stated change not applied: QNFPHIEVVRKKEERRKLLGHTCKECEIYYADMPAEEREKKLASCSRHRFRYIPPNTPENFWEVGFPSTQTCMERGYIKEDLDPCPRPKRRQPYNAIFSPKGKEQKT
# UniProt Q99708, 791-897 R839A: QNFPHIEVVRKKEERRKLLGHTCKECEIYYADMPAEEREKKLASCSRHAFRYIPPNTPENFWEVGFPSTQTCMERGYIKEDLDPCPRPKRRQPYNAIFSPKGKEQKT
# Tests used:
# CtIP R100W (human) = CtIP R100W (human) (UniProt Q99708); test: EMSA; conditions: slightly more protein needed; EMSA: 20 mM Tris-Cl pH 8.0, 100 mM NaCl, 1 mM DTT, 0.1 mg/ml BSA, 5% glycerol, 2.5 nM Cy5 fork, room temperature; recombinant protein; residues 1-897; protein details: StrepII; label: 5'-Cy5 on strand 1
# CtIP ΔC782 (human) [1] = molecular target: CtIP ΔC782 (human) (UniProt Q99708); test: EMSA; conditions: detectable but severely impaired; EMSA: 20 mM Tris-Cl pH 8.0, 100 mM NaCl, 1 mM DTT, 0.1 mg/ml BSA, 5% glycerol, 2.5 nM Cy5 fork, room temperature; recombinant protein; residues 1-782; protein details: StrepII; label: 5'-Cy5 on strand 1
# CtIP ΔN541a (human) = CtIP ΔN541a (human) (UniProt Q99708); test: EMSA; conditions: tighter than ΔN541b; EMSA: 20 mM Tris-Cl pH 8.0, 100 mM NaCl, 1 mM DTT, 0.1 mg/ml BSA, 5% glycerol, 2.5 nM Cy5 fork, room temperature; recombinant protein; residues 542-897; protein details: StrepII; label: 5'-Cy5 on strand 1
# CtIP ΔN541b (human) = CtIP ΔN541b (human) (UniProt Q99708); test: EMSA; conditions: EMSA: 20 mM Tris-Cl pH 8.0, 100 mM NaCl, 1 mM DTT, 0.1 mg/ml BSA, 5% glycerol, 2.5 nM Cy5 fork, room temperature; recombinant protein; residues 542-897; protein details: StrepII; label: 5'-Cy5 on strand 1
# CtIP ΔN790 (human) = CtIP ΔN790 (human) (UniProt Q99708); test: EMSA; conditions: shifted into wells; EMSA: 20 mM Tris-Cl pH 8.0, 100 mM NaCl, 1 mM DTT, 0.1 mg/ml BSA, 5% glycerol, 2.5 nM Cy5 fork, room temperature; recombinant protein; residues 791-897; protein details: StrepII; label: 5'-Cy5 on strand 1
# CtIP ΔN790 R839A (human) [2] = molecular target: CtIP ΔN790 R839A (human) (UniProt Q99708); test: EMSA; conditions: reduced vs ΔN790; EMSA: 20 mM Tris-Cl pH 8.0, 100 mM NaCl, 1 mM DTT, 0.1 mg/ml BSA, 5% glycerol, 2.5 nM Cy5 fork, room temperature; recombinant protein; residues 791-897; protein details: StrepII; label: 5'-Cy5 on strand 1
# CtIP ΔC782 (human) [3] = molecular target: CtIP ΔC782 (human) (UniProt Q99708); test: fluorescence anisotropy; conditions: partial binding at 400 nM, Kd not determined; Anisotropy: 20 mM Tris-Cl pH 8.0, 20 mM NaCl, 1 mM DTT, 5 nM HEX fork; recombinant protein; residues 1-782; protein details: StrepII; label: 5'-HEX on strand 1
# CtIP ΔN790 R839A (human) [4] = molecular target: CtIP ΔN790 R839A (human) (UniProt Q99708); test: fluorescence anisotropy; conditions: reduced vs ΔN790, label uncertain; Anisotropy: 20 mM Tris-Cl pH 8.0, 20 mM NaCl, 1 mM DTT, 5 nM HEX fork; recombinant protein; residues 791-897; protein details: StrepII; label: 5'-HEX on strand 1
# CtIP WT (human) = CtIP WT (human) (UniProt Q99708); test: optical tweezers with confocal imaging; conditions: fork bound in trans to CtIP on trapped DNA, infrequent; C-Trap reaction: 10 mM Tris-Cl pH 7.6, 20 mM NaCl, 1 mM DTT, 0.1 mg/ml BSA; recombinant protein; residues 1-897; protein details: StrepII (cleavable); label: 5'-Cy5 on strand 2
sequence,measurement,setting,value
GCTTGCTAGGACGGATCGCTCGAGGTTTTTTTTTTTTTTTTTTTT / TTTTTTTTTTTTTTTTTTTTCCTCGAGCGATCCGTCCTAGCAAGC [Cy5 fork],binding result,CtIP R100W (human),binds more weakly
same,binding result,CtIP ΔC782 (human) [1],binds more weakly
same,binding result,CtIP ΔN541a (human),binds more weakly
same,binding result,CtIP ΔN541b (human),binds more weakly
same,binding result,CtIP ΔN790 (human),binds more weakly
same,binding result,CtIP ΔN790 R839A (human) [2],binds more weakly
GCTTGCTAGGACGGATCGCTCGAGGTTTTTTTTTTTTTTTTTTTT / TTTTTTTTTTTTTTTTTTTTCCTCGAGCGATCCGTCCTAGCAAGC [HEX fork],binding result,CtIP ΔC782 (human) [3],binds more weakly
same,binding result,CtIP ΔN790 R839A (human) [4],binds more weakly
TCAGCTCATGTCATCCTCAGCACACTTGACCGGCTAGGCAGGATATCATGCATGCGGCCGCCATGGGAGGGTTAAGTAAGTAGATCAGAGA / TCTCTGATCTACTTACTTAACCCTCCCATGGCGGCCGCATGCATGATATCCTGCCTAGCCCTCAGCTCAGCTAGCCTCAGCCTACAATCACC [Cy5-Fork (C-Trap)],binding result,CtIP WT (human),binds

# For part of these data: The comparison behind a weaker result is the experiment's own reference, which may not be listed here. For part of these data: For at least one entry, the source does not settle the construct or the ends of the probe. For part of these data: At least one verdict rests on a figure or table, not on a statement of the authors.
